Measurements from PubChem BioAssay AID2685 (National Center for Advancing Translational Sciences (NCATS), 2010).
The list shows a part of the results. These are further read-outs of the screen, such as a control signal, another cell line or another target. No call is given for them. Compounds called inactive in the main read-out are mostly missing here. The note in brackets gives the kind of curve behind each potency; many fits are weak.

Assay: qHTS Assay for Lipid Storage Modulators in Drosophila S3 Cells;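 on cell number change: cells counted by Cell Tracker Red CMTPX staining in the red channel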
Details: BODIPY lipid droplet fluorescence, 18-24 h; for cell number change: measured here: cell count max response, cells fed with added oleic acid
Procedure, shortened: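 Drosophila S3 cells loaded with oleic acid (400 uM, as added) and compounds at several concentrations; lipid droplets imaged by 488-nm laser-scanning cytometry, 500–530 nm intensity and object ratio to cell channel. Percent activity normalized to 20 uM Triacsin C.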

[1] = measured here: lipid fluorescence (Fed channel) AC50, cells fed with added oleic acid
[2] = measured here: cell number channel AC50, cells fed with added oleic acid

Row | Structure (SMILES) | cell number change [%] | AC50 [1] | AC50 [2]
1 | COC(=O)c1cc(C(=O)c2c(C)cc3ccccn23)cc([N+](=O)[O-])c1 | -30.5 |  | 
2 | CC(C)c1ccc(NC(=O)C2CCN(S(C)(=O)=O)CC2)cc1 | 0.267 | 0.731 µM [rising, single point] | 
3 | COc1ccc(C2(C(=O)O)CCCC2)cc1 | -0.144 | 7.31 µM [falling, partial curve] | 
4 | COC(=O)C(C)Sc1n[nH]c(=S)s1 (configuration not stated) |  | 13 µM [falling, partial curve] | 
5 | O=C(Nc1cccc(NC(=O)C2CC3CCCC(C2)C3=O)n1)C1CC2CCCC(C1)C2=O (configuration not stated) | -51.3 | 29.1 µM [falling, single point] | 18.4 µM [falling, single point]
6 | Cc1cc(OC(=O)c2ccco2)c2c(C)cc(=O)oc2c1 | -18.5 | 3.26 µM [falling, partial curve, poor fit] | 7.31 µM [falling, partial curve]
7 | COc1ccc(-c2ccc(-c3noc(-c4ccccc4OC)n3)c(OC)n2)cc1 | 6.2 | 29.1 µM [rising, single point] | 
8 | O=C(N=Nc1c(O)[nH]c2ccccc12)c1cc(NS(=O)(=O)c2cccs2)cc(NS(=O)(=O)c2cccs2)c1 | 21 | 3.66 µM [rising, full curve] | 
9 | Cc1cc(C)c2nc(C)cc(N/N=C/c3ccc(O)cc3)c2c1 | -68 | 18.4 µM [falling, partial curve, poor fit] | 18.4 µM [falling, single point]
10 | NC(=O)c1nsc(C(=O)N(Cc2ccco2)C(C(=O)NCc2ccccc2)c2ccc(O)cc2)c1N (configuration not stated) | 10.4 |  | 
11 | Cc1nnc(SCC(=O)Nc2ccc(Br)cc2)n(N)c1=O | 36.7 |  | 
12 | COc1cc(/C=C/C(=O)OCC(=O)c2ccc3c(c2)NC(=O)CO3)ccc1OC(F)F | -9.02 | 29.1 µM [falling, single point] | 
13 | CC1CCN(CCc2nc3cc(NC(=O)Nc4ccccc4)ccc3n2C)CC1 | 3.25 | 6.51 µM [rising, single point] | 
14 | Cc1ccc(CNC2CCCCC2)s1 | 5.25 | 18.4 µM [rising, single point] | 
15 | O=c1ccc2cc3c(-c4ccccc4)coc3cc2o1 |  | 29.1 µM [rising, single point] | 
16 | CC(C)CC(=O)N(c1ccc(F)cc1)C1C=CS(=O)(=O)C1 (configuration not stated) | -5.04 |  | 
17 | COc1ccc(CC(=O)Nc2cccc(Cl)c2C)cc1S(=O)(=O)N1CCOCC1 | 47.1 | 29.1 µM [rising, partial curve, poor fit] | 29.1 µM [rising, single point]
18 | COc1ccc([C@H]2CC(=O)C=C(c3ccc(F)cc3OCc3ccccc3)C2)cc1OC | -6.02 | 11.6 µM [falling, single point] | 
19 | COc1ccc(C)cc1NC(C)C(=O)NC(=O)NC1CCCCC1 (configuration not stated) | -62.2 | 7.31 µM [falling, partial curve, poor fit] | 4.11 µM [falling, full curve]
20 | O=C(/C=C\c1ccc2c(c1)OCO2)Nc1c2c(nn1-c1ccc(Cl)cc1)CSC2 | 26.2 | 0.082 µM [rising, full curve, poor fit] | 

Row | Structure (SMILES) | cell number change [%] | AC50 [1] | AC50 [2]
21 | COC(=O)[C@H](Cc1ccccc1)NC(=O)NCCC1=CCCCC1 | -43 | 3.66 µM [falling, full curve] | 1.64 µM [falling, full curve]
22 | CCCCC(C(=O)NC(C)c1ccccc1)C(=O)NC(C)c1ccccc1 (configuration not stated) | -20 | 8.2 µM [falling, partial curve, poor fit] | 
23 | COC(=O)COc1ccc2c(-c3ccc(OC)cc3)cc(=O)oc2c1 | -16.8 | 2.31 µM [falling, full curve, poor fit] | 
24 | Cc1c(NC(=O)COC(=O)Cc2ccc(F)cc2)c(=O)n(-c2ccccc2)n1C | -11.2 |  | 
25 | Cc1ccc(-c2cc3ccccc3nc2N2CCCC2)cc1 | 40.2 | 5.8 µM [rising, full curve] | 8.2 µM [rising, partial curve]
26 | Cc1cc(C)c2ccc(NN)nc2c1O | 12.2 |  | 
27 | COc1cc(OC)c(S(=O)(=O)NC(C)C)cc1C(=O)O | -8.48 | 29.1 µM [falling, single point] | 
28 | CC(C)Oc1ccc(CNC(=O)CCCN2C(=O)C(c3ccccc3)Oc3cccnc32)cc1 (configuration not stated) | 1.53 |  | 
29 | CCn1nnnc1SCC(=O)NCc1cccs1 | -5.5 |  | 
30 | COc1ccc(-n2ncc3c(=O)n(CC(=O)N4CCCc5ccccc54)cnc32)cc1 | -16.3 | 0.411 µM [rising, full curve, poor fit] | 
31 | CCOc1ccc(-n2c(Cc3ccccc3)nnc2SCc2c(C)noc2C)cc1 | -5.35 |  | 
32 | CCOc1ccc(C(=O)NCC(=O)NCC(c2cccs2)N2CCOCC2)cc1 (configuration not stated) | 28.5 | 29.1 µM [rising, single point] | 
33 | O=C(c1cnn2cccnc12)N1CCN(c2ccccc2)CC1 | 59.8 | 29.1 µM [rising, single point] | 23.1 µM [rising, single point]
34 | CCOC(=O)N1CCN(CCC(=O)Nc2cc([N+](=O)[O-])ccc2OC)CC1 | -66.7 |  | 4.61 µM [falling, full curve]
35 | Nn1c(SCc2cn3ccsc3n2)nnc1-c1ccncc1 | 6.9 | 23.1 µM [falling, partial curve] | 
36 | Oc1ccc(/C=N/Nc2ccnc3cc(Cl)ccc23)c(O)c1O | 12.1 | 0.00461 µM [rising, full curve, poor fit] | 
37 | COc1ccc(OC)c(NC(=O)C2CCCN(S(C)(=O)=O)C2)c1 (configuration not stated) |  | 29.1 µM [rising, single point] | 
38 | O=C(O)CC1(c2ccc(F)cc2)C2CC3CC(C2)CC1C3 (configuration not stated) | -5.63 | 3.66 µM [falling, single point] | 
39 | Cc1ccccc1OCCC(=O)OCC(=O)Nc1ccc2[nH]c(=O)[nH]c2c1 | -49.3 | 29.1 µM [falling, single point] | 29.1 µM [falling, single point]
40 | Cc1nnc(SCC(=O)Nc2ccc(N3CCOCC3)cc2)n1Cc1ccccc1 | 22.4 | 2.91 µM [rising, full curve, poor fit] | 

Row | Structure (SMILES) | cell number change [%] | AC50 [1] | AC50 [2]
41 | CCN(c1ccccc1)c1nc(C#N)nc(N(CC)c2ccccc2)n1 | 15.8 | 6.51 µM [rising, single point] | 
42 | O=C(CN1C(=O)CCC1=O)Nc1nc(-c2ccccn2)cs1 | -28.2 |  | 
43 | CCOC(=O)CC1C(=O)NCCN1C(=O)c1ccc(Cl)cc1 (configuration not stated) | -28.2 | 6.51 µM [falling, partial curve] | 
44 | COCCNC(=O)c1cccc(OC2CCN(Cc3ccc(C(C)C)cc3)CC2)c1 | -5.11 | 18.4 µM [rising, single point] | 
45 | CCN1CCCC1CNC(=O)c1cc2c(OC)c(OC)c(OC)cc2[nH]1 (configuration not stated) | 19.4 |  | 
46 | COc1ccc(OCC(=O)NC2CCCc3ccccc32)cc1 (configuration not stated) | 10.5 | 5.62 µM [falling, single point] | 
47 | O=C(COC(=O)/C=C/c1ccccc1)NC(=O)NCc1ccccc1 | -17.8 | 0.00461 µM [rising, full curve, poor fit] | 
48 | O=C(O)C1C2C=CC(C2)C1C(=O)N1CCN(C/C=C/c2ccccc2)CC1 (configuration not stated) | 5.37 | 29.1 µM [rising, single point] | 
49 | COc1ccccc1OCCNC(=O)c1c(-c2ccccc2Cl)noc1C | -23.5 | 29.1 µM [falling, single point] | 
50 | CCC1(c2ccc(F)cc2)NC(=O)N(CC(=O)N2CCc3ccccc3C2)C1=O (configuration not stated) |  |  | 6.51 µM [rising, single point]
51 | C=CCOC(=O)C1=C(C)NC(=O)NC1/C=C/c1ccccc1OC (configuration not stated) | 16.6 | 29.1 µM [rising, single point] | 
52 | COc1ccc(-c2nnc(SC)n2C)cc1 | -2.33 | 0.13 µM [falling, partial curve, poor fit] | 
53 | COc1ccc(Oc2coc3cc(OC(=O)c4cncc(Br)c4)ccc3c2=O)cc1 | -10.4 | 6.51 µM [falling, single point] | 6.51 µM [falling, single point]
54 | Cc1ccccc1-c1nnc(SCC(=O)N(CC(C)C)c2c(N)n(CC(C)C)c(=O)[nH]c2=O)n1C | 28 |  | 0.00461 µM [rising, full curve, poor fit]
55 | Cc1ccc2c(c1)c(C)c(C)n2CC(O)Cn1nc(C)c(Br)c1C (configuration not stated) | -66.4 | 32.6 µM [falling, single point] | 23.1 µM [falling, single point]
56 | CC(C)c1c(C(=O)N/N=C/c2ccc(-c3ccccc3)cc2)nnn1-c1nonc1N | 8.26 |  | 
57 | Cc1sc(NC(=O)c2ccco2)c(CN2CCC(C)CC2)c1C | 43 |  | 23.1 µM [rising, single point]
58 | Cc1c(C(=O)NCc2ccccn2)oc2ccccc12 | 11.5 | 7.31 µM [rising, partial curve] | 
59 | Cc1cccc(NC(=O)Cn2c(O)c(N=NC(=O)c3ccccc3O)c3ccccc32)c1 | -81.2 | 5.8 µM [falling, partial curve, poor fit] | 29.1 µM [falling, single point]
60 | Cc1cccc(N2CCN(CCCNC(=O)c3ccc(NC(=O)C4=CSCCO4)cc3)CC2C)c1 (configuration not stated) | 1.52 | 20.6 µM [rising, single point] | 2.59 µM [rising, partial curve, poor fit]

Not a retest: 2 of the compounds above.
Row | Structure (SMILES) | cell number change [%] | AC50 [1] | AC50 [2]
47 | O=C(COC(=O)/C=C/c1ccccc1)NC(=O)NCc1ccccc1 | -17.8 | 0.00461 µM [rising, full curve, poor fit] | 
48 | O=C(O)C1C2C=CC(C2)C1C(=O)N1CCN(C/C=C/c2ccccc2)CC1 (configuration not stated) | 5.37 | 29.1 µM [rising, single point] | 
